# Publication PMC7751120
# These are yes or no findings as the source states them, for the method shown. In cells and extracts the contact can be indirect. These calls come from enrichment with a bait or labelling near it, and not all partners need be listed. Where a sequence is shown, tags or fusion partners need not be part of it.
# B1: RnfC with N-terminal Strep-tag (protein, UniProt H6LC32 1-443)
# chain: MNVKHGTFKGGIHPPYRKESTAEVPLGFGKKPEMVIIPMSLHIGAPCTPIVKKGDTVFLGQRVGEPNGFVSVPVHASVSGKVIAVEERPHASGDRVMSVVIESDGLDTIDPSIKPYGTLEDMDADAIKKMVLNAGIVGLGGATFPTHVKLAIPPDKKVDCVVLNGAECEPYLTADHHLMTSQAEKVVMGLKLAMKSVGVEKGFIGVEDNKTDAIEALVKAIGNDSRLEVYSLHTKYPQGAEKQLIAAITGREVPSGALPADAGVVVMNVGTAAQIAESMITGLPLYKRYLTCTGDAIKNPQTIEIRIGVPFQSVIDQCGGFSSEPGKVISGGPMMGVTQFVTDIPVMKGTSGILCLTKESAKIATPSNCIHCGKCVGVCPIHLQPLNIAEYSQRNMWDKCESNNAMDCIECGSCSYICPAKRTLVSSIRVAKREIIAQRRKGN
# B2: RnfD (protein, UniProt H6LC31 1-318)
# chain: MNELNLTVSSSPHIRAKHSTASIMQNVIIALLPALAVAGYVFGLWALALVAICVISSVATEAVIQKLLKKPITVNDWSAVVTGVLLAFNLPINAPWWIGVVGSVFAIAIVKQCFGGLGQNFINPALAARAFLLASWPGHMTSTAYIPLTDTVTTATPLALLKAGETGSMPSTLDLFTGLNGVYGCIGEISALALLIGGLYLIYKGIISWRIPTIYLLTIAIFALLVGQDPIVHMVSGGVMLGAFFMATDYASSPVTAKGQIIYAIGCGLITMIIRLYGGYPEGCSYSILLMNVATPLIERFTKERIYGVTKIKKEAKA
# modifications: covalently bound FMN (residue not stated)
# B3: RnfA (protein, UniProt H6LC28 1-192)
# chain: MTLIFIMISAIFVNNFVLSRFLGICPFLGVSKQVETAVGMGVAVTFVMALASAITYVVQYAILDPLSLGYLQTIAFILIIAALVQLVEMIIKKSSPSLYQALGVYLPLITTNCAVLGVALINIQNEYNFIETIFNGVGAALGFTLAIVLFAGIRERLETSAVPKALEGFPIALLTAGLMAIAFLGFSGMKLG
# Molecular target: T1, RnfB with C-terminal His-tag (Acetobacterium woodii) (UniProt H6LC27)
# T1 sequence: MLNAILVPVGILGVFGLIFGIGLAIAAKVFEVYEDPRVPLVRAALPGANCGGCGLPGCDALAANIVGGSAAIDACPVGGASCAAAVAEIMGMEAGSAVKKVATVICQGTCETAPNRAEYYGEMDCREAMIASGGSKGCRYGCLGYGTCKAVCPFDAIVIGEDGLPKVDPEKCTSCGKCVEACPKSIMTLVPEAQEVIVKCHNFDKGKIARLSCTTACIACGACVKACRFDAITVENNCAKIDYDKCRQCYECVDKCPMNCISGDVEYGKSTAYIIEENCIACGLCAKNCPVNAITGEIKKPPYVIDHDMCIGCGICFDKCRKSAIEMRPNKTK
# Experiment: affinity purification with mass spectrometry; Ni2+-NTA purification by the C-terminal His-tags on RnfB and RnfG from DDM-solubilised membranes of A. woodii Δrnf pMTL_8312_Ptet_rnf, anoxic, 4 °C, 50 mM Tris-HCl pH 8.0, 20 mM MgSO4, 0.02% DDM, 5 µM FMN; washed with 20 mM and eluted with 150 mM imidazole; pooled fractions E2 and E3 analysed by SDS-PAGE, Western blot and MALDI-TOF peptide mass fingerprinting
row,Binder,binding
1,B1,binds
2,B2,binds
3,B3,binds

# Molecular target: T2, RnfG with C-terminal His-tag (Acetobacterium woodii) (UniProt H6LC30)
# T2 sequence (chain, covalently bound FMN (residue not stated)): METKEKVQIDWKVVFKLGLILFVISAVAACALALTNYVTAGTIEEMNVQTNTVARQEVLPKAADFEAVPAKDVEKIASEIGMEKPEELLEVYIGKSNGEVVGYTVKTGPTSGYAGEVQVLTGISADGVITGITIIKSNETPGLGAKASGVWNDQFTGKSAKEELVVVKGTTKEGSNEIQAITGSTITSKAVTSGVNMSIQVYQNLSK
# Experiment: as above
row,Binder,binding
1,B1,binds
2,B2,binds
3,B3,binds
